A short description of the data set: general procedure: solution-phase peptide synthesis; HATU/HOBT/DIEA. The following applies: late stage modification step, TFA salt.

As for “(2S)-2-[2-(2-aminoacetamido)acetamido]-N-([[(2-[2-chloro-4-[([[2-(2,6-dioxopiperidin-3-yl)-1-oxo-3H-isoindol-5-yl]methyl]carbamoyl)amino]phenyl]ethoxy)methyl]-carbamoyl]methyl)-3-phenylpropanamide; trifluoroacetic acid”, the step yield is on record as 79%.

The values are drawn from patent US20230338564A1 (Orum Therapeutics, Inc., priority 2020, published 2023).
